Like-named read-outs stand apart in the source and are kept apart here. No constants are given. Whether binding was seen depends on the method and setting. Binding seen in cells or lysates may run through a third protein. A yes stands for co-enrichment or nearness to the bait. Other partners may have been found. For part of these data: No binding means not detected with the bait. Values belong to the molecule of their own block, whether it stands above or below them.
Experiments:
Test in all cases: affinity purification with mass spectrometry
[1] = molecular target: AtCFI59 tagged with GFP at its N-terminus (GFP-AtCFI59) (Arabidopsis thaliana) (UniProt Q9SAF2)
[2] = molecular target: AtCFI25a tagged with GFP at its N-terminus (GFP-AtCFI25a) (Arabidopsis thaliana) (UniProt Q8GXS3)
[3] = molecular target: AtCFI68 tagged with GFP at its C-terminus (AtCFI68-GFP), in transgenic plants (Arabidopsis thaliana)
[4] = molecular target: AtCFI59 tagged with GFP at its N-terminus (GFP-AtCFI59) (Arabidopsis thaliana) (UniProt Q9SAF2); remark: listed apart in the source
[5] = molecular target: AtCFI25a tagged with GFP at its N-terminus (GFP-AtCFI25a) (Arabidopsis thaliana) (UniProt Q8GXS3); remark: listed apart in the source

By UniProt entry, the sequences of proteins in these tests, tags left out. Where a name states a change or a piece, a line headed by the entry shows the natural chain unless it says otherwise.
UniProt Q9SAF2: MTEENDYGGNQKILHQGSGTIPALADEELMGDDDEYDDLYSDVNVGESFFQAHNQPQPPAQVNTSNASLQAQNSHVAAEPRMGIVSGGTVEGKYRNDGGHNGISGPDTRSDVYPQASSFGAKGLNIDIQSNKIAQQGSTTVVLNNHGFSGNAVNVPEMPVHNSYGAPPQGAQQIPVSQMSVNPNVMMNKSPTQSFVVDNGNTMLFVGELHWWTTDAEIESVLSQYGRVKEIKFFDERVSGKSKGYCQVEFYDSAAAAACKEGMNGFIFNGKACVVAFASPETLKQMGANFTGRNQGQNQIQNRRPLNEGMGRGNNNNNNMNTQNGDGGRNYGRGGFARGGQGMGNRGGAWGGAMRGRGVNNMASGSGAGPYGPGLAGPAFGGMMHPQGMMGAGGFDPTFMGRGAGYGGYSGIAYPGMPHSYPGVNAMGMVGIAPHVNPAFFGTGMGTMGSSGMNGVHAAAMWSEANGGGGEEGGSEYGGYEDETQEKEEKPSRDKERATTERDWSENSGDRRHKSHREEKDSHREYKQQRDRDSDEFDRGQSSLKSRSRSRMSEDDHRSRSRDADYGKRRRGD
UniProt Q8GXS3: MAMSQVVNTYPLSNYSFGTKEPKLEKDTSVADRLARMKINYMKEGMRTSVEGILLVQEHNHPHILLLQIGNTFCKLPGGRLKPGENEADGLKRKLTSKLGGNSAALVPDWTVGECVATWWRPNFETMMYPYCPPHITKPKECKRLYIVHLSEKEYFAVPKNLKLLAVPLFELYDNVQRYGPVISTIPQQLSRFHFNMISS
UniProt Q94AF0: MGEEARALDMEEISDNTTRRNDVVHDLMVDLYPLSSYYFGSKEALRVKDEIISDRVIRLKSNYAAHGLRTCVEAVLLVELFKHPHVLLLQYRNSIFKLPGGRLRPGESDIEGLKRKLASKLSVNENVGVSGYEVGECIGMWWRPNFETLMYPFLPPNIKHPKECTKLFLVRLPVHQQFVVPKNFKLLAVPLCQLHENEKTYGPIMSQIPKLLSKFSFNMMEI

Molecule: AtCFI25b (endogenous) (from UniProt Q94AF0)
binding [1]: no binding | binding [2]: no binding

Molecule: AtCFI25a (endogenous) (from UniProt Q8GXS3)
binding [1]: binds

Further lines, results first:

binding [3]: binds | binding [4]: binds | binding [5]: binds
B1: AtCPSF30 (endogenous) (protein, UniProt A9LNK9-2 1-250)
chain: MEDADGLSFDFEGGLDSGPVQNTASVPVAPPENSSSAAVNVAPTYDHSSATVAGAGRGRSFRQTVCRHWLRGLCMKGDACGFLHQFDKARMPICRFFRLYGECREQDCVYKHTNEDIKECNMYKLGFCPNGPDCRYRHAKLPGPPPPVEEVLQKIQQLTTYNYGTNRLYQARNVAPQLQDRPQGQVPMQGQPQESGNLQQQQQQQPQQSQHQVSQTLIPNPADQTNRTSHPLPQGVNRCVQSPKVFNWVL

binding [3]: binds | binding [4]: binds | binding [5]: binds
B2: AtFIP1 (endogenous) (protein, UniProt F4KDH9 1-1196)
chain: MEEDDEFGDLYSDVLQPFQPPVVLPPPPPLPHRSIDLNLRSQDQDVSEPNSAPISRVSDNDAVKLSTQDATRQAIVDGGGDDKDMSFDIEEPDADSTPTIPGLFVTGALPGLATDRGVSQVTTRIEQQVGGGGDGGYGGQGEGDDWDSDSEDDLQIVLNDSSRNVMIGGADRRSRMGDNEDDDDEDDEDPLVIVADTDPNQPMEEQMWGEDGLQGIEGDGKDGGEAGKGSGPGGATGPPKAGYSSHGYHPFHSQFKYVRPGAAPIPGGAASVGGPSSGQVRPPANLGPMAGRGRGDWRPLGMRNASAAQKGFHQPWGSNTAGRGLDFTLPSHKTIFEVDIDSFEEKPWRYPGVEMTDYFNFGLNEESWKDYCKQLDQHRIQTTMQSRIRVYESGRTDQGYDPDLPPELAAATGAQGVPVDSSNLVKPDSVQGDSAKVPANVRPTLPPGRPIPVETGSGERLPSIDTRAPRMRDLDAIIEIVCQDSHEDEPSGENGTDQADSSLPGENVPVETSYVNNKRPDTESAEHSPAQDEPHKNLLKKQDDEISRSTDSGQSFRSSSPVGDRGTRSSSVDREDVGGEAGKDAEMGEELKMSFTSPQSAVQEDDGGESKTERSSESSKARSGSHRDFQQEEDVIQDKHSSRPANNRKQYDNNAPHQSRKNQDRGKEMERTRAASKGGRENSNPHMELDSTYIYSIASREDFDKRKERDVDGAVWRRKEDDPYSRRGGDEGSRKRDREDDPGFRQRGKMRENEIRSKDDQVPSRKHMDDAGMRNIYEPDDHINKRRKDEEYLRRSRPEKNEISYGQRESMSRVKRERDDRLEHQKRDVQHKIRDDFDDHGSLRQRDDIYMQRDGNERLRERDVLDKLKLPHEDGISARGRERQVAVRGHRGSEDRSSRMKDEYKASDKEHVTKDTLRHAKQTKRRDYPGEESSSHHRGHEDFSARTDNIVNNEKKPRQERTGAKIDKFIDTLDGQRLQDRKHKDSRRKIKEQREGTESLSKQGEQNGSSVVTGSKGTNDARNCRSEIPHQPNTAKRHKENASSGDEIHDSKRGRTKLERWASHKEREDAVSAKSSSISSKLEEKENNTNGRLSEPVHGSIGKSRDVTEEKIGHDLADTKDGSEKGPGDRHLDTVEKLKKRSERFKLPMPTEKDTTGVKKMESETLPSAKIEGPVDSEGEYVWDERSCVRIGREYA

Reference: publication doi:10.1101/2024.03.28.587165
